Common to all, as to assay: co-IP; GFP-Trap agarose beads on AMB-1 lysates (NP-40 lysis), 1 h at 4°C, washes in 10 mM Tris-HCl, 150 mM NaCl, pH 7.4; elutions probed by Western blot (anti-GFP, anti-Halotag, anti-Flag); strains ΔmcaAB, WT, ΔmcaA, ΔmamKΔmcaA, ΔmcaBΔmamK, ΔMAIΔMIS, ΔmamKΔmamK-like, Δmms6
(In western blotting, separated proteins are transferred to a membrane and probed.)

Assay [1] addresses McaAΔ530-GFP (Magnetospirillum magneticum AMB-1).
Assay [2] deals with McaB-GFP (Magnetospirillum magneticum AMB-1).
Assay [3] concerns the target McaA-GFP (Magnetospirillum magneticum AMB-1).

No constants are given. Whether binding was seen depends on the method and setting. In cells and extracts the contact can be indirect. A result given as binding can be weak or reduced; the word gives no strength. Tags and fused reporters may be left off the sequences shown.

B1: MamK-Flag (protein, UniProt Q2W8Q6 1-347)
chain: MSEGEGQAKNRLFLGIDLGTSHTAVMSSRGKKFLLKSVVGYPKDVIGLKLLGRPYVVGDEAFEMRSYLDIRYPLQDGVLSEISDRDIEVARHLLTHVVKSAEPGPNDEICAVIGVPARASAANKALLLKMAQEVVHTALVVSEPFMVGYGLDKLINTIIVDIGAGTTDICALKGTVPGPEDQVTLTKAGNYVDERLQNAILERHPELQMNVNVACAVKEQFSFVGTPTEVASFEFRAAGKPVRADVTEPVKIACEALMPDIIESIETLLRSFQPEYQATVLQNIVFAGGGSRIRGLAAYVKEKLRPFGDANVTCVKDPTFDGCRGALRLAEELPPQYWRQLGDVSGS
Turning to B1, the binding entry in assay [1], in assay [2] and in assay [3] was “binds” in each case.

B2: Mms6-Halo (protein, UniProt Q2W8R5 1-133)
chain: MGEMEREGAAAKAGAAKTGAAKTGTVAKTGIAAKTGVATAVAAPAAPANVAAAQGAGTKVALGAGKAAAGAKVVGGTIWTGKGLGLGLGLGLGAWGPIILGVVGAGAVYAYMKSRDIESAQSDEEVELRDALA
Take B2: the binding result in assay [2] was “no binding”.

The values are drawn from article PMC13170167, “Magnetosome organelles are organized through interactions between McaA and McaB that alter the dynamics of the bacterial actin-like protein MamK” (mBio, 2026).
